PubChem BioAssay AID1224830, NIAID | 2016
Purpose: 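Host factors that control LPS-induced TNF expression in human macrophages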 (primary screen). Cells: human THP-1 monocytic leukaemia cells, TNF dual-luciferase reporter clone, PMA-differentiated to macrophage-like cells. Knock-down reagent: siRNA pool against human genes, 50 nM. Time to read-out: LPS for 4 h, given about 3 days after siRNA transfection. Treatment: bacterial LPS (TLR4 ligand), 10 ng/ml. Read-out: 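Ratio of firefly to renilla light, scaled to the plate median and expressed as a robust z-score per replicate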. Direction: TNF reporter robust z-score: higher = stronger TNF reporter response to LPS. Hit rule: 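Each well counts as active if its z-score is over 2.8 or under -1.5; controls are left without a call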.
Here is an unselected part of about 18,000 reagents. About 2,900 of them (16%) count as active. 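Calls are made per well; low scores hint the gene aids the LPS response, high scores that it dampens it.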 A number with no mark means an inactive call. Repeated entries: four replicate wells of each siRNA pool.

target gene | PubChem SID | TNF reporter robust z-score
POLD4 | SID315458592 | -1.51 (active)
POLD4 | SID315458592 | -1.12
POLD4 | SID315458592 | -1.44
POLD4 | SID315458592 | -0.67
ADH1B | SID315447200 | -0.06
ADH1B | SID315447200 | 0.75
ADH1B | SID315447200 | -0.33
ADH1B | SID315447200 | 0
WDR24 | SID315460244 | 2.2
WDR24 | SID315460244 | 3.5 (active)
WDR24 | SID315460244 | 0.94
WDR24 | SID315460244 | 1.49
PGBD4 | SID315462733 | 0.83
PGBD4 | SID315462733 | -0.92
PGBD4 | SID315462733 | 0.51
PGBD4 | SID315462733 | -0.55
KLF13 | SID315456811 | -0.9
KLF13 | SID315456811 | -0.56
KLF13 | SID315456811 | -0.02
KLF13 | SID315456811 | 0.27
TF | SID315451827 | -1.29
TF | SID315451827 | -0.72
TF | SID315451827 | -1.09
TF | SID315451827 | -0.88
ARL4D | SID315447386 | -0.81
ARL4D | SID315447386 | -0.36
ARL4D | SID315447386 | -0.12
ARL4D | SID315447386 | 0.08
GJD3 | SID315461652 | -1.53 (active)
GJD3 | SID315461652 | -0.81
GJD3 | SID315461652 | -1.57 (active)
GJD3 | SID315461652 | -0.7

Active calls, among the entries above:
target gene | PubChem SID | TNF reporter robust z-score
POLD4 | SID315458592 | -1.51 (active)
WDR24 | SID315460244 | 3.5 (active)
GJD3 | SID315461652 | -1.53 (active)
GJD3 | SID315461652 | -1.57 (active)

The listing continues:
target gene | PubChem SID | TNF reporter robust z-score
COL16A1 | SID315448034 | -0.94
COL16A1 | SID315448034 | -1.83 (active)
COL16A1 | SID315448034 | -0.43
COL16A1 | SID315448034 | 0.98
FAM111B | SID315464315 | -0.64
FAM111B | SID315464315 | 0.16
FAM111B | SID315464315 | 1.02
FAM111B | SID315464315 | 0.83
CDKAL1 | SID315457252 | 0
CDKAL1 | SID315457252 | -0.37
CDKAL1 | SID315457252 | -0.66
CDKAL1 | SID315457252 | -0.17
PMP22 | SID315450663 | -0.59
PMP22 | SID315450663 | 0.18
PMP22 | SID315450663 | -0.49
PMP22 | SID315450663 | 0.66
